The list shows a part of the results.
Assays:
Test in all cases: log2 fold change, soluble protein after heating vs DMSO (PISA); higher = thermal stabilisation; K562 lysate, 10 uM; active = over 0.2 and 3.5 SD of the protein, either way, in both replicates (recomputed)
[1] = compound: C1=CC=C(C=C1)[C@H](COC2=CC3=C(C=C2)NC(=O)N3)NC(=O)C4=CC=CN(C4=O)CC5=CC(=C(C=C5)F)F
Method in brief: (§1)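 Following dounce homogenisation of K562 pellets in PBS pH 7.4 with 1 mM MgCl2, crude extract at 1 mg/mL protein was incubated for 30 min with 10 μM compound. Aliquots were then heated for 3 min over 48°C-58°C and pooled, NP-40 was added to 0.5% at 4°C, and soluble protein was recovered as the supernatant at 21,000xg for 90 min. Channel-sum-equalised TMTpro 16plex LC-MS/MS quantified this protein. Each value, from duplicates, is a log-two fold change in thermal stability relative to solvent controls.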

Sequences of proteins named here, by UniProt entry; tags and fusion partners are left off. A change or cut given only in a name is not applied to a line headed by its entry.
UniProt P62306, whole entry, looked up: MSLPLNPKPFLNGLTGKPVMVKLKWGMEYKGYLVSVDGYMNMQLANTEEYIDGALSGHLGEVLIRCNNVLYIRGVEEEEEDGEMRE
UniProt Q00796: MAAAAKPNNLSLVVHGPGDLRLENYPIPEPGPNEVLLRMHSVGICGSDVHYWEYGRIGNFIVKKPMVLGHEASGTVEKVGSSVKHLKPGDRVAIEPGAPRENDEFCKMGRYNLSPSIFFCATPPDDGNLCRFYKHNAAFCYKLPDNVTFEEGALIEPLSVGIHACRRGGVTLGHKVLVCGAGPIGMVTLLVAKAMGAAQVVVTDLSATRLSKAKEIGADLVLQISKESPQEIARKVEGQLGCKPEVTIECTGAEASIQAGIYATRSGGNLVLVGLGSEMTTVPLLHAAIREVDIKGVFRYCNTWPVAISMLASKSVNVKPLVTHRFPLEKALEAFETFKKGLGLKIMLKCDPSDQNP
UniProt Q99523, whole entry, looked up: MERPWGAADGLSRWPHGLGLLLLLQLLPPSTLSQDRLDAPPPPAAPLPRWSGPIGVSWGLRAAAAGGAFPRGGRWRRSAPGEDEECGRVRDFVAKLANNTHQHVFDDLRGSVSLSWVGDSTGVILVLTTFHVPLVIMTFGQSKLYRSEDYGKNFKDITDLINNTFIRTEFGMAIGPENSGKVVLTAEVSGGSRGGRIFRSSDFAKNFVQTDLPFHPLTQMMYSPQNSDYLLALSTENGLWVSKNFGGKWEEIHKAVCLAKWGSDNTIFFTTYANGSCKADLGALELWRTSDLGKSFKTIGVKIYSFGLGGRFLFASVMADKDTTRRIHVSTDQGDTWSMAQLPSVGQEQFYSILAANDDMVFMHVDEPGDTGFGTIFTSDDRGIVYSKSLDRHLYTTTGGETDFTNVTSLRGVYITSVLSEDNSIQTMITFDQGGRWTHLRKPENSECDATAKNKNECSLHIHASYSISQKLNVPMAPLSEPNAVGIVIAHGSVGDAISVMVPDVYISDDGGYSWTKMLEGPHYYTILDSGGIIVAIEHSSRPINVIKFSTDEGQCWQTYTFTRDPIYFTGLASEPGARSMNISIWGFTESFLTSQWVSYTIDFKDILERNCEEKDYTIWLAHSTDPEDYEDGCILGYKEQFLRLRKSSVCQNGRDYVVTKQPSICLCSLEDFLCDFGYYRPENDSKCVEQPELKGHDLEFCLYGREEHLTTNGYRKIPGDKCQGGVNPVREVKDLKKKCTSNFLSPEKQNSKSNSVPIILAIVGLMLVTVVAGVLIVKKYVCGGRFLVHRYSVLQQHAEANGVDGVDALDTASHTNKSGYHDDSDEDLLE
UniProt Q9H4L7: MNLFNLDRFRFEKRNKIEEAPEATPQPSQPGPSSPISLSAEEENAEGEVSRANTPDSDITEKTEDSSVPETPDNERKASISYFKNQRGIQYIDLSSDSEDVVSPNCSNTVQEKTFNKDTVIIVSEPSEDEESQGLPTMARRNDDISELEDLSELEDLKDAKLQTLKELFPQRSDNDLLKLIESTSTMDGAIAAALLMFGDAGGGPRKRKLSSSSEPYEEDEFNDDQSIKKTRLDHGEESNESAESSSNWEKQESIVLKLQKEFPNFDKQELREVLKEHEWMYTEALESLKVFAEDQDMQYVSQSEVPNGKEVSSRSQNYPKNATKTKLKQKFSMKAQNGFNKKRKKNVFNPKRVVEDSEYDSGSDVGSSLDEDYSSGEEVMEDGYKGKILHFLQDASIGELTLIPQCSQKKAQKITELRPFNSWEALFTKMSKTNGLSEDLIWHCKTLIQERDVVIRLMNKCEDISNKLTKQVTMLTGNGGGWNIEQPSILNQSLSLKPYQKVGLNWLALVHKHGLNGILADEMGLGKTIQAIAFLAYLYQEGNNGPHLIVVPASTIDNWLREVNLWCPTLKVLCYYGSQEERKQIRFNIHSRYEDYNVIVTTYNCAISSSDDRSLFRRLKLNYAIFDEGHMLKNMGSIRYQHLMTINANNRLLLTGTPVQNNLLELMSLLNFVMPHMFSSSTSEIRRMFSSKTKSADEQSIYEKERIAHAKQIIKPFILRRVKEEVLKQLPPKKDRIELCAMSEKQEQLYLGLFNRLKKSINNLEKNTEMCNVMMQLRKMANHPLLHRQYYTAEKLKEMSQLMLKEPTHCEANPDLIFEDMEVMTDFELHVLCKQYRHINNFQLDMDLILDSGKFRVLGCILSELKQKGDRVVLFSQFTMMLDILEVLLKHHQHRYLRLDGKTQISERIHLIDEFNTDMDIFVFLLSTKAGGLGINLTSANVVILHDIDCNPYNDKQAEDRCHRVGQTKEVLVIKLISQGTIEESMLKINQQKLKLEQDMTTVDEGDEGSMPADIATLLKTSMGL
UniProt Q13425: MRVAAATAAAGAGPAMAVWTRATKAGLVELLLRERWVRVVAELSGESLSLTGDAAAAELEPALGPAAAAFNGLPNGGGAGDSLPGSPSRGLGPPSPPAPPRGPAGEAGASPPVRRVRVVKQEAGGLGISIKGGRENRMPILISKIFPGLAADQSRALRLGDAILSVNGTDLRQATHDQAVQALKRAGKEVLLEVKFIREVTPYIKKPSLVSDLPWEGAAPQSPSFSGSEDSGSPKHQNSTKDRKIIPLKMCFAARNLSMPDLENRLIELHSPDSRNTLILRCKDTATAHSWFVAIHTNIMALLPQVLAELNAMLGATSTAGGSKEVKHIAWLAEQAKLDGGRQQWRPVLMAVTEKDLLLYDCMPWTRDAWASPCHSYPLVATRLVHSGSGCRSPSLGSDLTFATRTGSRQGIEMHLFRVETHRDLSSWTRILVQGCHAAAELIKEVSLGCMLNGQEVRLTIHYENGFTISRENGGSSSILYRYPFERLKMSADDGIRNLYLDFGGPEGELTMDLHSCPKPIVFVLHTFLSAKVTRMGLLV
UniProt O60271: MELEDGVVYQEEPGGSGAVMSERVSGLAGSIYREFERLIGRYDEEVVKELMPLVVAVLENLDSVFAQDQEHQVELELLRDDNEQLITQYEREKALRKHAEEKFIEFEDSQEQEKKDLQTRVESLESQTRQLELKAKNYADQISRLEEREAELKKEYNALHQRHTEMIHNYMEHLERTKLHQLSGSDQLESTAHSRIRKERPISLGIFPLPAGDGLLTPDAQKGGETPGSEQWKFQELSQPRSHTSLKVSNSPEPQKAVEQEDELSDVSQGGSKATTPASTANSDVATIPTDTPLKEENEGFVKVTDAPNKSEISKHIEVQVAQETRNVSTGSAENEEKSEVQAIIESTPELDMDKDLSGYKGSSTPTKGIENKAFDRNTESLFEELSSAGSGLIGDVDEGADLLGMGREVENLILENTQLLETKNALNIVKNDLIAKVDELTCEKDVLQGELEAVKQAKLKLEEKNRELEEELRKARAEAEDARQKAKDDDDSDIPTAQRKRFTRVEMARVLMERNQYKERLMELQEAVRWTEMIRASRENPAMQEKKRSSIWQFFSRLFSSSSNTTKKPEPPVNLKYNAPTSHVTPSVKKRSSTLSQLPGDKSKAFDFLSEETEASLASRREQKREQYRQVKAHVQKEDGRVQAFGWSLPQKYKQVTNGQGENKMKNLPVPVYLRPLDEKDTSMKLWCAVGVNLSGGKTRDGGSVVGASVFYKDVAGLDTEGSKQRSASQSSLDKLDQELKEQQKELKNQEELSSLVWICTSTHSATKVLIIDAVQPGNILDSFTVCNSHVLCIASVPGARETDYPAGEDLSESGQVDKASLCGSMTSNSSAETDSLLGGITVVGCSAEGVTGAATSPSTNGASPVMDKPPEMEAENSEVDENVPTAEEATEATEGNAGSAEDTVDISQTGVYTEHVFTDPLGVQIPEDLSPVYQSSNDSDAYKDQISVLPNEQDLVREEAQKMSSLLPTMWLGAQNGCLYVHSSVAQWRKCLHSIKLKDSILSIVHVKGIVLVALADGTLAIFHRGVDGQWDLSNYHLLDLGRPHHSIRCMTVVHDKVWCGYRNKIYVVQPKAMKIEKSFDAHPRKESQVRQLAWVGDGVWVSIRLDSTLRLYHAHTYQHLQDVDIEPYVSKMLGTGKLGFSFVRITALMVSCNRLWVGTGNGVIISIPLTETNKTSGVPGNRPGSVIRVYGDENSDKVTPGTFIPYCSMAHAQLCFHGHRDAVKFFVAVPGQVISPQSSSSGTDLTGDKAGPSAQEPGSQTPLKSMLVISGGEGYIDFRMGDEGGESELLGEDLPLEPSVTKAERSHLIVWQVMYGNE
UniProt P35610: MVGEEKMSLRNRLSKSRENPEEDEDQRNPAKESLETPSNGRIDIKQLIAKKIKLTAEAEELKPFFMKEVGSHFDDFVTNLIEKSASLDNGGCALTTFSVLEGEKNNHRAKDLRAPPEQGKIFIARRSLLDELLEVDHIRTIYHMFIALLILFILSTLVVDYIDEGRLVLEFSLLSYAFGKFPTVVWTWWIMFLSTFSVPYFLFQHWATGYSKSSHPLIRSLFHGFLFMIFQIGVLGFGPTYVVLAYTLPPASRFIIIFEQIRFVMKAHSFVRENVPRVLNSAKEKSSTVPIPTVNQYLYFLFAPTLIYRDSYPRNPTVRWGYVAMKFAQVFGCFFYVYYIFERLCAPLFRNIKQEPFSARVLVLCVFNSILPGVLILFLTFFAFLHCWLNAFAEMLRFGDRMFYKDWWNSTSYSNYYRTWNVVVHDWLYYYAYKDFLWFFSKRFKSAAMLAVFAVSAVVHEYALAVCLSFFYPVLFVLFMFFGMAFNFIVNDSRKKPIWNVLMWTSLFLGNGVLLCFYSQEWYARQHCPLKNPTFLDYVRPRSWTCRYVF
UniProt O15370: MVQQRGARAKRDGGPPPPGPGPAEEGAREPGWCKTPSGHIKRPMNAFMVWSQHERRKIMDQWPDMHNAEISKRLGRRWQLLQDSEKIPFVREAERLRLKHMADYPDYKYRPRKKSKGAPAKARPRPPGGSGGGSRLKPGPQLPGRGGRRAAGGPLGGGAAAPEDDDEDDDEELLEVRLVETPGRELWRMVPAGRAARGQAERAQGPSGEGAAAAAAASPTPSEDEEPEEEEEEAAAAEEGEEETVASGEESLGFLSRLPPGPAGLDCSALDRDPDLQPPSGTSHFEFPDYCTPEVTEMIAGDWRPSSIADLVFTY
UniProt Q9Y5X2: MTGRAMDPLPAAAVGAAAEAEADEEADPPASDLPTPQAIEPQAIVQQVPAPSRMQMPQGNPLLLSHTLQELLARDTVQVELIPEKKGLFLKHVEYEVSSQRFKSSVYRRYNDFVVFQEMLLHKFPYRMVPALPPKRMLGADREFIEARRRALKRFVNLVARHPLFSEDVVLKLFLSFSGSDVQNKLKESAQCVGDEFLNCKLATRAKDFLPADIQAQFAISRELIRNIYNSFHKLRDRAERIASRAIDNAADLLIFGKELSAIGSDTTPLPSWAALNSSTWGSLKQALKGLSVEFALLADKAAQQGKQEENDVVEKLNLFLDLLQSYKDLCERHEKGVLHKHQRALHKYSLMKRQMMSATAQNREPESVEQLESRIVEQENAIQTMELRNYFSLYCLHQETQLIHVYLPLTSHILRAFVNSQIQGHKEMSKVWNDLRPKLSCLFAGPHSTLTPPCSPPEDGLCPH
UniProt Q7KZF4: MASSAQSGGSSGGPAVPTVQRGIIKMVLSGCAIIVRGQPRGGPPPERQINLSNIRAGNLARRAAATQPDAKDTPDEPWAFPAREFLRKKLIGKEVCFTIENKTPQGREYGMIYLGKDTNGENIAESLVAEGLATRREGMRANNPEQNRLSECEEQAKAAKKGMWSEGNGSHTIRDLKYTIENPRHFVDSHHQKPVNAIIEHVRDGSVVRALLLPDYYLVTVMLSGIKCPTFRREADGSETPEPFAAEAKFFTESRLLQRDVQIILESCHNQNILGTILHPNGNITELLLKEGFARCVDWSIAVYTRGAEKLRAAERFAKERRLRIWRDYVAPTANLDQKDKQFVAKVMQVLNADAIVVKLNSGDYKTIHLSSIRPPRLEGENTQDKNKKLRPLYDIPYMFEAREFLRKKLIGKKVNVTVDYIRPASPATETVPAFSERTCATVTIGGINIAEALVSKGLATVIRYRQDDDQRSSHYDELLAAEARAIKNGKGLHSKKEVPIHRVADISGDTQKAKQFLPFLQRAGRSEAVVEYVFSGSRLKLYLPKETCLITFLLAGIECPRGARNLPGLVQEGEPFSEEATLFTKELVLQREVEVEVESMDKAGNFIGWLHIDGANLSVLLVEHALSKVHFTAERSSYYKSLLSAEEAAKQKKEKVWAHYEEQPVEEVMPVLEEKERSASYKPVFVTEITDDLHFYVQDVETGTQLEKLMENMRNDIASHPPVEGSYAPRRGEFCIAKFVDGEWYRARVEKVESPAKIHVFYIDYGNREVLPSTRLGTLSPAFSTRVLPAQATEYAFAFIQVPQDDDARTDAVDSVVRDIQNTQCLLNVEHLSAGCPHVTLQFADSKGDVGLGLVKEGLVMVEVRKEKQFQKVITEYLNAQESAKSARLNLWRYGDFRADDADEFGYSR
UniProt O60493, whole entry, looked up: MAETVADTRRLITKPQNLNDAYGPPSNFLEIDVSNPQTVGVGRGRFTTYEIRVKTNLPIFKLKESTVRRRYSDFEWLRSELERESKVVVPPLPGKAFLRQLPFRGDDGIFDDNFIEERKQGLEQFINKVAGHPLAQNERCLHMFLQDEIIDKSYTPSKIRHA

[2] = compound: CC1=C(SC2=C1C(=N[C@H](C3=NN=C(N32)C)CC(=O)N)C4=CC=C(C=C4)Cl)C
Method in brief: as §1

[3] = compound: CC1=C2C(=CC=C1)N=C(N(C2=O)C3=CC=CC=C3C)CN4C=NC5=C(N=CN=C54)N
Method in brief: as §1

[4] = compound: Cc1sc2c(c1C)C(c1ccc(Cl)cc1)=N[C@@H](CC(=O)OC(C)(C)C)c1nnc(C)n1-2
Method in brief: as §1

[5] = compound: c1ccc([C@@H]2C[C@H]2NC2CCNCC2)cc1
Method in brief: as §1

Target | log2 fold change [1] | log2 fold change [2] | log2 fold change [3] | log2 fold change [4] | log2 fold change [5]
SP4 (UniProt Q02446) | inactive: -0.31 | inactive: 0.325 | inactive: 0.213 | inactive: 0.061 | inactive: -0.019
SNRPF (UniProt P62306) | inactive: 0.04 | inactive: -0.084 | inactive: -0.12 | inactive: -0.103 | inactive: -0.206
SNRPB2 (UniProt P08579) | inactive: 0.025 | inactive: -0.006 | inactive: 0.005 | inactive: -0.005 | inactive: 0.004
SNW1 (UniProt Q13573) | inactive: 0.018 | inactive: -0.002 | inactive: -0.009 | inactive: 0.022 | inactive: 0.048
SNX6, A0A0A0MRI2 | inactive: 0.014 | inactive: 0.006 | inactive: 0.016 | inactive: 0.017 | inactive: 0.115
SNRPD1 (UniProt P62314) | inactive: -0.048 | inactive: 0.047 | inactive: -0.02 | inactive: -0.028 | inactive: -0.018
SMC4 (UniProt Q9NTJ3) | inactive: -0.033 | inactive: 0.003 | inactive: -0.011 | inactive: -0.005 | inactive: 0.055
SMC5 (UniProt Q8IY18) | inactive: 0.01 | inactive: 0 | inactive: -0.016 | inactive: -0.026 | inactive: -0.01
SORD (UniProt Q00796) | inactive: 0.017 | inactive: -0.004 | inactive: -0.015 | inactive: -0.007 | inactive: 0.013
SNX27 (UniProt Q96L92) | inactive: -0.043 | inactive: 0.023 | inactive: 0.008 | inactive: 0.044 | inactive: 0.004
SMIM20 isoform 2 (UniProt Q8N5G0) | inactive: -0.205 | inactive: -0.081 | inactive: -0.114 | inactive: -0.061 | inactive: 0.075
SORT1 (UniProt Q99523) | inactive: 0.011 | inactive: 0.012 | inactive: 0.022 | inactive: -0.022 | inactive: -0.02
SMARCAD1 isoform 2 (UniProt Q9H4L7) | inactive: -0.006 | inactive: -0.036 | inactive: 0.014 | inactive: 0.014 | inactive: 0.035
SNU13 (UniProt P55769) | inactive: 0.032 | inactive: 0.01 | inactive: -0.09 | inactive: 0.024 | inactive: 0
SNTB2 (UniProt Q13425) | inactive: 0.003 | inactive: -0.012 | inactive: 0.012 | inactive: -0.011 | inactive: -0.003
SMU1 isoform 2 (UniProt Q2TAY7) | inactive: -0.216 | inactive: 0.095 | inactive: 0.216 | – | inactive: -0.209
SNX15 (UniProt Q9NRS6) | inactive: -0.024 | inactive: 0.007 | inactive: 0.005 | inactive: 0.016 | inactive: -0.011
SNRNP48 (UniProt Q6IEG0) | inactive: -0.148 | inactive: 0.059 | inactive: 0.091 | inactive: 0.002 | inactive: 0.011
SMARCE1 (UniProt Q969G3) | inactive: -0.021 | inactive: -0.003 | inactive: 0.02 | inactive: -0.004 | inactive: 0.021

2 entries drawn at random from the list so far, as already listed:
Target | log2 fold change [1] | log2 fold change [2] | log2 fold change [3] | log2 fold change [4] | log2 fold change [5]
SMC4 (UniProt Q9NTJ3) | inactive: -0.033 | inactive: 0.003 | inactive: -0.011 | inactive: -0.005 | inactive: 0.055
SNRPD1 (UniProt P62314) | inactive: -0.048 | inactive: 0.047 | inactive: -0.02 | inactive: -0.028 | inactive: -0.018

Later entries:

Target | log2 fold change [1] | log2 fold change [2] | log2 fold change [3] | log2 fold change [4] | log2 fold change [5]
SMC3 (UniProt Q9UQE7) | inactive: -0.002 | inactive: 0.011 | inactive: -0.011 | inactive: 0.037 | inactive: 0.022
SPAG9 isoform 4 (UniProt O60271) | inactive: -0.021 | inactive: -0.053 | inactive: -0.17 | – | inactive: 0.001
SNX5 (UniProt Q9Y5X3) | inactive: 0.025 | inactive: -0.01 | inactive: 0.012 | inactive: 0.004 | inactive: 0.021
SNRPB isoform 3 (UniProt P14678) | inactive: -0.02 | inactive: -0.011 | inactive: -0.011 | inactive: 0.054 | inactive: 0.046
SNX4 (UniProt O95219) | inactive: 0.029 | inactive: -0.051 | inactive: 0 | inactive: -0.026 | inactive: 0.01
SMS (UniProt P52788) | inactive: -0.013 | inactive: 0.026 | inactive: -0.001 | inactive: 0 | inactive: 0.011
SOCS2 (UniProt O14508) | inactive: 0.053 | inactive: -0.006 | inactive: 0.077 | inactive: 0.017 | inactive: -0.025
SNRPA (UniProt P09012) | inactive: 0.012 | inactive: 0.052 | inactive: 0.022 | inactive: -0.055 | inactive: -0.012
SNUPN (UniProt O95149) | inactive: -0.013 | inactive: -0.018 | inactive: 0.047 | – | inactive: -0.02
SNX1 (UniProt Q13596) | inactive: -0.011 | inactive: 0.002 | inactive: -0.012 | inactive: 0.002 | inactive: 0.024
SOAT1 (UniProt P35610) | inactive: 0.041 | inactive: -0.002 | inactive: -0.008 | active: 0.282 | inactive: -0.06
SNRK (UniProt Q9NRH2) | inactive: -0.015 | inactive: -0.033 | inactive: -0.394 | inactive: -0.006 | inactive: -0.093
SOD3 (UniProt P08294) | inactive: 0.128 | inactive: -0.118 | inactive: 0.025 | – | inactive: 0.009
SNRPD2 (UniProt P62316) | inactive: 0.039 | inactive: -0.021 | inactive: 0.028 | inactive: -0.009 | inactive: -0.068
SPARC (UniProt P09486) | inactive: 0.044 | inactive: 0.037 | inactive: -0.063 | inactive: -0.091 | inactive: 0.098
SNF8 (UniProt Q96H20) | inactive: 0.019 | inactive: 0.035 | inactive: -0.021 | inactive: -0.009 | inactive: 0.016
SMPD4 isoform 4 (UniProt Q9NXE4) | inactive: -0.116 | inactive: 0.112 | inactive: 0.087 | – | inactive: -0.046
SOX12 (UniProt O15370) | inactive: 0.101 | inactive: 0.05 | inactive: 0.09 | inactive: -0.108 | inactive: -0.185
SNAPC4 (UniProt Q5SXM2) | inactive: -0.12 | inactive: 0.05 | inactive: 0.083 | – | inactive: 0.021

Target | log2 fold change [1] | log2 fold change [2] | log2 fold change [3] | log2 fold change [4] | log2 fold change [5]
SMARCA4 (UniProt P51532) | inactive: -0.034 | inactive: 0.016 | inactive: 0.003 | inactive: 0.014 | inactive: 0.055
SP2 (UniProt Q02086) | inactive: -0.176 | inactive: 0.019 | – | inactive: -0.135 | –
SNX16 (UniProt P57768) | inactive: 0.128 | inactive: -0.016 | inactive: -0.038 | inactive: -0.073 | inactive: -0.128
SNCA (UniProt P37840) | inactive: 0.211 | inactive: 0 | inactive: -0.009 | inactive: 0.211 | inactive: -0.077
SNX8 (UniProt Q9Y5X2) | inactive: 0.003 | inactive: 0.041 | inactive: 0.017 | inactive: -0.014 | inactive: -0.034
SNTA1 (UniProt Q13424) | inactive: 0.013 | inactive: 0.044 | inactive: 0.023 | inactive: 0.205 | inactive: 0
SMG6 (UniProt Q86US8) | inactive: 0.097 | inactive: -0.041 | inactive: -0.043 | inactive: 0.076 | inactive: 0.073
SND1 (UniProt Q7KZF4) | inactive: -0.008 | inactive: 0.021 | inactive: 0.022 | inactive: 0.037 | inactive: 0.041
SMUG1 (UniProt Q53HV7) | inactive: 0.05 | inactive: 0.079 | inactive: 0.027 | inactive: 0.043 | inactive: -0.165
SNCG (UniProt O76070) | inactive: -0.01 | inactive: -0.054 | inactive: -0.043 | inactive: 0.046 | inactive: -0.058
SORBS1 isoform 8 (UniProt Q9BX66) | inactive: 0.023 | inactive: 0 | inactive: 0.047 | inactive: -0.012 | inactive: 0.001
SMG8 isoform 2 (UniProt Q8ND04) | inactive: 0.014 | inactive: 0.042 | inactive: 0.024 | inactive: 0.017 | inactive: 0.107
SOX7 isoform 2 (UniProt Q9BT81) | inactive: 0.039 | inactive: 0.022 | inactive: 0.118 | – | inactive: 0.131
SMARCD2 (UniProt Q92925) | inactive: 0.017 | inactive: 0.013 | inactive: 0.004 | inactive: 0.023 | inactive: 0.004
SNX3 (UniProt O60493) | inactive: -0.033 | inactive: 0.031 | inactive: -0.034 | inactive: 0.036 | inactive: 0.009
SPANXB1 (UniProt Q9NS25) | – | – | – | – | inactive: -0.154
SMOX isoform 6 (UniProt Q9NWM0) | – | – | – | inactive: 0.015 | –
SMARCD3 (UniProt Q6STE5) | – | – | – | inactive: 0.146 | –

Source: the supplement of paper PMC10849652
